Measurements reported in PubChem BioAssay AID1159598 (NIAID, 2016)
In all, the deposit lists 756 reagents; shown is a random part of them. 142 of them (19%) count as active. 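Active includes both higher and lower reporter signal; each gene has six separate siRNAs, and no gene-level summary is deposited.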 Reagents against one gene are numbered here. Reagent sequences are not shown. Not given: the amount of reagent.

Aim: 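Knock-downs that alter flagellin-driven TNF reporter signal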
Cell system: human THP-1 B5 reporter cells made macrophage-like with PMA
Reagent: single siRNA against human genes
Duration: reporter read 48 to 72 hours after siRNA transfection
Treatment: flagellin stimulation for 4 hours, dose not given
Measurement: 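TNF promoter firefly luciferase over renilla after 4 h flagellin, plate median/MAD scaled, robust z versus negative controls, mean of replicates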
Scale: TNF reporter z-score: higher = stronger TNF promoter activity than controls
Rule for the call: 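Active means the mean reporter z is about 1.5 or more, or about -1.5 or less; values closer to zero are inactive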
Meaning of the calls: active = reporter shifted beyond 1.5 z, up or down; inactive = reporter within 1.5 z of controls

| gene knocked down | reagent no. | TNF reporter z-score | call |
| --- | --- | --- | --- |
| ELK4 (GeneID 2005) | 1 | -0.717 | inactive |
| ELK4 (GeneID 2005) | 2 | -0.874 | inactive |
| ELK4 (GeneID 2005) | 3 | 0.222 | inactive |
| ELK4 (GeneID 2005) | 4 | -0.112 | inactive |
| ELK4 (GeneID 2005) | 5 | -0.792 | inactive |
| ELK4 (GeneID 2005) | 6 | -1.3 | inactive |
| ATF7 (GeneID 11016) | 1 | -2.41 | active |
| ATF7 (GeneID 11016) | 2 | -0.0462 | inactive |
| ATF7 (GeneID 11016) | 3 | -0.768 | inactive |
| ATF7 (GeneID 11016) | 4 | -1.22 | inactive |
| ATF7 (GeneID 11016) | 5 | -0.945 | inactive |
| ATF7 (GeneID 11016) | 6 | -1.2 | inactive |
| AKT3 (GeneID 10000) | 1 | 0.0326 | inactive |
| AKT3 (GeneID 10000) | 2 | -0.981 | inactive |
| AKT3 (GeneID 10000) | 3 | 1.48 | inactive |
| AKT3 (GeneID 10000) | 4 | -0.444 | inactive |
| AKT3 (GeneID 10000) | 5 | -0.792 | inactive |
| AKT3 (GeneID 10000) | 6 | -1.59 | active |
| PIK3CB (GeneID 5291) | 1 | -1.83 | active |
| PIK3CB (GeneID 5291) | 2 | -0.785 | inactive |
| PIK3CB (GeneID 5291) | 3 | -0.861 | inactive |
| PIK3CB (GeneID 5291) | 4 | 0.107 | inactive |
| PIK3CB (GeneID 5291) | 5 | 0.707 | inactive |
| PIK3CB (GeneID 5291) | 6 | 0.393 | inactive |
| TLR5 (GeneID 7100) | 1 | -5.33 | active |
| TLR5 (GeneID 7100) | 2 | -2.16 | active |
| TLR5 (GeneID 7100) | 3 | -3.69 | active |
| TLR5 (GeneID 7100) | 4 | -3.63 | active |
| TLR5 (GeneID 7100) | 5 | -2.28 | active |
| TLR5 (GeneID 7100) | 6 | -4.28 | active |
| IRF9 (GeneID 10379) | 1 | 0.439 | inactive |
| IRF9 (GeneID 10379) | 2 | 0.195 | inactive |
| IRF9 (GeneID 10379) | 3 | -0.993 | inactive |
| IRF9 (GeneID 10379) | 4 | -2 | active |
| IRF9 (GeneID 10379) | 5 | -0.712 | inactive |
| IRF9 (GeneID 10379) | 6 | -0.858 | inactive |
| RAC1 (GeneID 5879) | 1 | -0.053 | inactive |
| RAC1 (GeneID 5879) | 2 | -1.77 | active |
| RAC1 (GeneID 5879) | 3 | 0.073 | inactive |
| RAC1 (GeneID 5879) | 4 | -0.448 | inactive |
| RAC1 (GeneID 5879) | 5 | -0.234 | inactive |
| RAC1 (GeneID 5879) | 6 | -1.41 | inactive |
| MAPK3 (GeneID 5595) | 1 | -1 | inactive |
| MAPK3 (GeneID 5595) | 2 | -0.524 | inactive |
| MAPK3 (GeneID 5595) | 3 | -1.94 | active |
| MAPK3 (GeneID 5595) | 4 | -0.0576 | inactive |
| MAPK3 (GeneID 5595) | 5 | -0.412 | inactive |
| MAPK3 (GeneID 5595) | 6 | -2.02 | active |
| PIK3CA (GeneID 5290) | 1 | 0.0114 | inactive |
| PIK3CA (GeneID 5290) | 2 | -0.842 | inactive |
| PIK3CA (GeneID 5290) | 3 | -0.333 | inactive |
| PIK3CA (GeneID 5290) | 4 | 0.078 | inactive |
| PIK3CA (GeneID 5290) | 5 | -0.84 | inactive |
| PIK3CA (GeneID 5290) | 6 | -0.412 | inactive |
| TICAM1 (GeneID 148022) | 1 | -0.763 | inactive |
| TICAM1 (GeneID 148022) | 2 | -1.01 | inactive |
| TICAM1 (GeneID 148022) | 3 | -0.376 | inactive |
| TICAM1 (GeneID 148022) | 4 | -1.59 | active |
| TICAM1 (GeneID 148022) | 5 | -0.944 | inactive |
| TICAM1 (GeneID 148022) | 6 | -0.629 | inactive |
| IRAK1 (GeneID 3654) | 1 | -1.1 | inactive |
| IRAK1 (GeneID 3654) | 2 | -1.94 | active |
| IRAK1 (GeneID 3654) | 3 | -5.23 | active |
| IRAK1 (GeneID 3654) | 4 | -1.38 | inactive |
| IRAK1 (GeneID 3654) | 5 | -3.11 | active |
| IRAK1 (GeneID 3654) | 6 | -2.29 | active |
| DAB2IP (GeneID 153090) | 1 | -0.6 | inactive |
| DAB2IP (GeneID 153090) | 2 | -0.239 | inactive |
| DAB2IP (GeneID 153090) | 3 | 1.32 | inactive |
| DAB2IP (GeneID 153090) | 4 | -1.23 | inactive |
| DAB2IP (GeneID 153090) | 5 | -0.814 | inactive |
| DAB2IP (GeneID 153090) | 6 | -0.51 | inactive |

Next part; the last 4 above are carried over.
| gene knocked down | reagent no. | TNF reporter z-score | call |
| --- | --- | --- | --- |
| DAB2IP (GeneID 153090) | 3 | 1.32 | inactive |
| DAB2IP (GeneID 153090) | 4 | -1.23 | inactive |
| DAB2IP (GeneID 153090) | 5 | -0.814 | inactive |
| DAB2IP (GeneID 153090) | 6 | -0.51 | inactive |
| MAPK1 (GeneID 5594) | 1 | 1.01 | inactive |
| MAPK1 (GeneID 5594) | 2 | -0.375 | inactive |
| MAPK1 (GeneID 5594) | 3 | 0.225 | inactive |
| MAPK1 (GeneID 5594) | 4 | 0.618 | inactive |
| MAPK1 (GeneID 5594) | 5 | 0.118 | inactive |
| MAPK1 (GeneID 5594) | 6 | -0.548 | inactive |
| TLR8 (GeneID 51311) | 1 | -0.412 | inactive |
| TLR8 (GeneID 51311) | 2 | 0.547 | inactive |
| TLR8 (GeneID 51311) | 3 | -0.838 | inactive |
| TLR8 (GeneID 51311) | 4 | -1.39 | inactive |
| TLR8 (GeneID 51311) | 5 | 0.236 | inactive |
| TLR8 (GeneID 51311) | 6 | -0.235 | inactive |
| TAB3 (GeneID 257397) | 1 | -0.147 | inactive |
| TAB3 (GeneID 257397) | 2 | -1.22 | inactive |
| TAB3 (GeneID 257397) | 3 | -0.432 | inactive |
| TAB3 (GeneID 257397) | 4 | -0.619 | inactive |
| TAB3 (GeneID 257397) | 5 | 0.22 | inactive |
| TAB3 (GeneID 257397) | 6 | 0.177 | inactive |
| MAPK10 (GeneID 5602) | 1 | -0.2 | inactive |
| MAPK10 (GeneID 5602) | 2 | -1.04 | inactive |
| MAPK10 (GeneID 5602) | 3 | -0.287 | inactive |
| MAPK10 (GeneID 5602) | 4 | 0.117 | inactive |
| MAPK10 (GeneID 5602) | 5 | 0.288 | inactive |
| MAPK10 (GeneID 5602) | 6 | -0.0669 | inactive |
| OTUD5 (GeneID 55593) | 1 | -0.525 | inactive |
| OTUD5 (GeneID 55593) | 2 | -0.289 | inactive |
| OTUD5 (GeneID 55593) | 3 | -1.37 | inactive |
| OTUD5 (GeneID 55593) | 4 | -0.567 | inactive |
| OTUD5 (GeneID 55593) | 5 | -1.63 | active |
| OTUD5 (GeneID 55593) | 6 | -0.817 | inactive |
| MAPKAPK2 (GeneID 9261) | 1 | -0.00802 | inactive |
| MAPKAPK2 (GeneID 9261) | 2 | -0.55 | inactive |
| MAPKAPK2 (GeneID 9261) | 3 | -1.32 | inactive |
| MAPKAPK2 (GeneID 9261) | 4 | 0.0719 | inactive |
| MAPKAPK2 (GeneID 9261) | 5 | 0.558 | inactive |
| MAPKAPK2 (GeneID 9261) | 6 | -1.24 | inactive |
| CREBBP (GeneID 1387) | 1 | 2.23 | active |
| CREBBP (GeneID 1387) | 2 | 0.057 | inactive |
| CREBBP (GeneID 1387) | 3 | 0.13 | inactive |
| CREBBP (GeneID 1387) | 4 | 0.238 | inactive |
| CREBBP (GeneID 1387) | 5 | 0.027 | inactive |
| CREBBP (GeneID 1387) | 6 | -0.694 | inactive |
